This is one part of the list.

Amino acid sequences for entries named in this document (tags omitted).
UniProt Q0JBA9, entry or part of it: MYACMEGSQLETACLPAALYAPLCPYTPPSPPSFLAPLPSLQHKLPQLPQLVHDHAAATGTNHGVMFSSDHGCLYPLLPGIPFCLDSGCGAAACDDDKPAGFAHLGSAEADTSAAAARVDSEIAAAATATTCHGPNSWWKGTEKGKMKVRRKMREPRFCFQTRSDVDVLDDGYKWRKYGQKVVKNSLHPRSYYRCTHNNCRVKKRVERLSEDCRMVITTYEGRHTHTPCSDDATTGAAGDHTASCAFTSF

The assay addresses OsWRKY34 (Oryza sativa, UniProt Q0JBA9 1-250). Nature of the assay: protein-binding microarray (RPBM); PBS, 2% BSA, 51.3 ng/ul salmon testes DNA, 50 uM zinc acetate, 200 nM TF, 25 C, 1 h; high values mean tight binding. To be noted: protein: recombinant; tags: N-terminal polyhistidine and DsRed monomer fusion (pET32a); label: CyDye5-dUTP incorporated in the synthesized complementary strand; 3' TTTTT single-stranded linker to array surface; dsDNA, one strand shown. Summed up:
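Ni–NTA purification followed expression in E. coli BL21-CodonPlus of transcription factors fused N-terminally to a polyhistidine tag and DsRed. At 200 nM in PBS with 2% BSA, salmon testes DNA and 50 µM zinc acetate, the protein was incubated for 1 h at 25 °C with a custom Agilent array that had been primer-extended with Cy5-dUTP and blocked with 2% BSA. After washing, the array was read on an Axon 4000B scanner. The binding signal is per-feature fluorescence intensity in arbitrary units.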
Take “GAGAAATTTGCGCATGGAAGCACCGGAATTCCACGTTATCCGGAGTCACCTAGTGCAG”: the binding signal is 9020 fluorescence intensity (a.u.).
Turning to “GTTCGTTTCGTTTCGTTTCCATCAGACGCGCGGCCGCAGCCGGAGTCACCTAGTGCAG”, the binding signal is 8230 fluorescence intensity (a.u.).
In the case of “ATTTCAGTTAGTACTATTTCTGCAAGCCATCCTACTCTATCGGAGTCACCTAGTGCAG” it was 10100 fluorescence intensity (a.u.); in that of “TCCCTTGTGTCACCTATGACTTTCATCTCAATACTCTCTCCGGAGTCACCTAGTGCAG”, 12300 fluorescence intensity (a.u.).
In the case of “CTTATCCTCTCGTCGCCGCGCGCCAACCCGCCACAAAACCCGGAGTCACCTAGTGCAG” it was 8760 fluorescence intensity (a.u.).
In the case of “TAACCTTTGACAATGTTGGTACTTGGTACAGTTTGTATTCCGGAGTCACCTAGTGCAG” it was 8870 fluorescence intensity (a.u.); in that of “AAGTCGATTTGGTACTATACTATAGGAGGGAGGGGTCTAACGGAGTCACCTAGTGCAG”, 12700 fluorescence intensity (a.u.); in that of “ACAAACGTCCACAGACTTCCACAACACGTACACACTCATCCGGAGTCACCTAGTGCAG”, 11200 fluorescence intensity (a.u.).
Take “ATCCACCATACACCTTACCAGTCACCAACTAATCCACCAACGGAGTCACCTAGTGCAG”: the binding signal is 8660 fluorescence intensity (a.u.).
In the case of “CCTCATTTGCTTCTTCTTCTTCTTCCTCCTCTTTGTTTCACGGAGTCACCTAGTGCAG” it was 9120 fluorescence intensity (a.u.); in that of “ACTATTAATATCTGGTCTCACGTATCATAAACACATTACACGGAGTCACCTAGTGCAG”, 8780 fluorescence intensity (a.u.).
In the case of “GCTGACATAATTGCTTGTTGGGATTCTTGGGAGGAAATGGCGGAGTCACCTAGTGCAG” it was 8330 fluorescence intensity (a.u.); in that of “GACGGATGCCCTGGAGGTTTGGGTTGAGATGGGAGTAGAGCGGAGTCACCTAGTGCAG”, 8310 fluorescence intensity (a.u.); in that of “TATGTGGCGTGTTCTTTTCCATCACTTATCTTCATTTCTGCGGAGTCACCTAGTGCAG”, 12200 fluorescence intensity (a.u.).
In the case of “ATTTCCCTTTTCTTTTTTATTTTTTATGCATTAGCTTTTACGGAGTCACCTAGTGCAG” it was 9600 fluorescence intensity (a.u.); in that of “GATATTTTTTCATTCTCATATCTTTGTTACCACACATTTTCGGAGTCACCTAGTGCAG”, 11900 fluorescence intensity (a.u.); in that of “CATCTTTGATCAATTCAGTTACTATTTACTACCTATGATCCGGAGTCACCTAGTGCAG”, 9870 fluorescence intensity (a.u.).
Consider “ACTTCTGCCAAGGAGCATACTCTCACGGTTGTTTGCGGGACGGAGTCACCTAGTGCAG”, for which the binding signal was 8120 fluorescence intensity (a.u.).
For “GCTGATCTAAATTTATTATTGCTATAGAGTTGTGTTTTTCCGGAGTCACCTAGTGCAG”, the binding signal is 8020 fluorescence intensity (a.u.).
The same measure for “CCCATGCACACGCTTCCTATCAAGATGAAAAGAGGCCTACCGGAGTCACCTAGTGCAG”: 8240 fluorescence intensity (a.u.); for “TCCGTCATTAATAAATGTTTACTGTAGCACCACATTATCACGGAGTCACCTAGTGCAG”: 8350 fluorescence intensity (a.u.); for “AAGGCTGCGTTCGTTCGTAAGGTTTGGTTGGGATTTTAAGCGGAGTCACCTAGTGCAG”: 9900 fluorescence intensity (a.u.).
The same measure for “GCCCGCTGAAACATGCATCTTCCCTACCTAGCTCGTCTTCCGGAGTCACCTAGTGCAG”: 8080 fluorescence intensity (a.u.); for “AAGGAAGATGACCAAGGGGTTATTATTGGGGATGGATTTGCGGAGTCACCTAGTGCAG”: 8830 fluorescence intensity (a.u.); for “CTCCTTTCTCAGTAACTGCACCCACCTCCACACCTACACGCGGAGTCACCTAGTGCAG”: 9790 fluorescence intensity (a.u.).
The same measure for “TTATCTCTTTTTTTCTCATCGTGTAGGTCGAATTTGAACTCGGAGTCACCTAGTGCAG”: 8250 fluorescence intensity (a.u.).
In the case of “CGTGTCTCTGTTTCGTTTTCCTTTCTCGCACCGCGTTTGCCGGAGTCACCTAGTGCAG”, the binding signal is 8790 fluorescence intensity (a.u.).
Turning to “GATCAAACGTTGGTTAAAAAGTCAACGGCGTCATACATTACGGAGTCACCTAGTGCAG”, the binding signal is 10700 fluorescence intensity (a.u.).
The same measure for “TCTCCGCTCCCGACACACACTCCACTCCACTCCAGTCCACCGGAGTCACCTAGTGCAG”: 9240 fluorescence intensity (a.u.); for “TGCTTTAGTAGTTCTGTTACGTGGAAGGTTTGTTTTTTTTCGGAGTCACCTAGTGCAG”: 10100 fluorescence intensity (a.u.).
As for “CATAGTGCCCGGTATTTATTTTCTATTTTTTTTCCAAACTCGGAGTCACCTAGTGCAG”, the binding signal was 11600 fluorescence intensity (a.u.).
For the sequence “CACTTCTCTAATACTATCGGCCCTTATCAGAACTGCTTTACGGAGTCACCTAGTGCAG”, the binding signal was 8480 fluorescence intensity (a.u.).
Consider “TTGCCTGGTCGATATGTCCTGCCCGGGCACTGTTGATATACGGAGTCACCTAGTGCAG”, for which the binding signal is 10500 fluorescence intensity (a.u.).
In the case of “CTTTCCCACTCTCTCTCACACACCACGTCCCATCCCGTCGCGGAGTCACCTAGTGCAG” it was 8290 fluorescence intensity (a.u.); in that of “CCTCTCCTAGGTTAAGTTTTTTTGGGGCGAAGGGAGTATTCGGAGTCACCTAGTGCAG”, 8120 fluorescence intensity (a.u.).
For the sequence “TCCCCGACGAGGTCGGCCAGCGAGCTCTCACCCGAGCGCTCGGAGTCACCTAGTGCAG”, the binding signal is 8250 fluorescence intensity (a.u.).
In the case of “CTTTCTCTGTTGATCTTCTCGTGGTGGGTGACTGTGTCAACGGAGTCACCTAGTGCAG” it was 10300 fluorescence intensity (a.u.).
The same measure for “ATTTACACCCAGCAACGGTCTCTGCCTCGTCGATCGCCTACGGAGTCACCTAGTGCAG”: 11000 fluorescence intensity (a.u.); for “TGTCAGTCACTGTCCCCTTCGTGGTCGTCTTCGCCACTTCCGGAGTCACCTAGTGCAG”: 9210 fluorescence intensity (a.u.).
As for “GCTTCAAGCTCAACCGGTCAGTCAATTCCCGCATAAGTTTCGGAGTCACCTAGTGCAG”, the binding signal was 9850 fluorescence intensity (a.u.).
With “CCCCAGCATCTCACATTTCACATGTCTGAATCAGAGCACCCGGAGTCACCTAGTGCAG”, the binding signal is 8140 fluorescence intensity (a.u.).
The same measure for “GTCTGTTGCTGTGTTGGACAAGTTTTGTCTGAAAATCGCCCGGAGTCACCTAGTGCAG”: 8110 fluorescence intensity (a.u.).

The record behind these values is article PMC7819943, “Rice protein-binding microarrays: a tool to detect cis-acting elements near promoter regions in rice”.
